For one molecule, binding results are on record in article PMC5593696.

The chains behind the UniProt entries cited, without tags or fusion partners.
UniProt P10275: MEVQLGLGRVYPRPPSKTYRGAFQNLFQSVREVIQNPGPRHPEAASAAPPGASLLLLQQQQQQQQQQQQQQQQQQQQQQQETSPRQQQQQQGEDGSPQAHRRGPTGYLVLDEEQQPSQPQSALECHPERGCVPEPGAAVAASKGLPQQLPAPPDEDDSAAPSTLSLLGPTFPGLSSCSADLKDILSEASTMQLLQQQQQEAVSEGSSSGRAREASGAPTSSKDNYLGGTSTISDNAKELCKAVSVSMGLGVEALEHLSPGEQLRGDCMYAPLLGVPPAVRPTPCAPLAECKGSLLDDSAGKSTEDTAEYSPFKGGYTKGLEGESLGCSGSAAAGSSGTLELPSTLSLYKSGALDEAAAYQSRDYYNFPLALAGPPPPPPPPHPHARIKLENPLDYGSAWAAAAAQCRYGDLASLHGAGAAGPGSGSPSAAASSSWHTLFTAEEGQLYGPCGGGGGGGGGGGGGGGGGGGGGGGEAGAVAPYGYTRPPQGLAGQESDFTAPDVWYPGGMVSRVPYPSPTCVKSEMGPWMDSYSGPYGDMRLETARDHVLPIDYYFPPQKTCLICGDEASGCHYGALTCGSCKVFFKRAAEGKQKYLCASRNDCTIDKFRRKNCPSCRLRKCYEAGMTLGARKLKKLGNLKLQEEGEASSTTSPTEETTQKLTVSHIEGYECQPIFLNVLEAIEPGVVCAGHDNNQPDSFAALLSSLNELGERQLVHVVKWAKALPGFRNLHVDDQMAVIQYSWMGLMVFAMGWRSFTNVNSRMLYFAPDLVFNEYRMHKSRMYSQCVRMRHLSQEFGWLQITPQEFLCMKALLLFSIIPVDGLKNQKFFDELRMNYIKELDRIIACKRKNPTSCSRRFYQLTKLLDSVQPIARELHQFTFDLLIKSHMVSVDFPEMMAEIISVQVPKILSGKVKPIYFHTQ

The experiment has as its target androgen receptor (human (endogenous in T-47D and MFM-223)) (UniProt P10275). As to the kind of experiment: co-IP; IP of endogenous AR with rabbit polyclonal AR antibody from T-47D and MFM-223 lysates; non-denaturing lysis buffer (20 mM Tris HCl pH 8, 137 nM NaCl, 10% glycerol, 1% NP-40, 2 mM EDTA), overnight at 4°C, Protein A-Sepharose beads; immunoblot for C1orf64 and AR; control non-specific rabbit …; three replicates.

Results are given in words; binding and its absence hold for the method and conditions named. Binding seen in cells or lysates may run through a third protein. Some entries that bind do so weakly or less than the wild type.

B1: C1orf64 (protein, UniProt Q8NEQ6 1-169)
chain: MAPSEDPRDWRANLKGTIRETGLETSSGGKLAGHQKTVPTAHLTFVIDCTHGKQLSLAATASPPQAPSPNRGLVTPPMKTYIVFCGENWPHLTRVTPMGGGCLAQARATLPLCRGSVASASFPVSPLCPQEVPEAKGKPVKAAPVRSSTWGTVKDSLKALSSCVCGQAD
Regarding B1, the binding entry is “binds”.
